Assay results reported in patent US11135160B2, “Use of chlorogenic acid in preparing pharmaceuticals for treatment of LAG-3-mediated disease” (SICHUAN JIUZHANG BIOLOGICAL SCIENCE AND TECHNOLOGY CO. LTD, priority 2016, dated 2021).
For at least one compound, name, drawing or mass did not settle the structure.

Tested on: GL261 brain in situ glioma
Experiment: Tumor size in mice with GL261 brain in situ glioma
Format: in vivo, C57BL/6 mice
Details: 7 days, chlorogenic acid 40 mg/kg intraperitoneal, temozolomide 20 mg/kg oral, vs saline control group (*P<0.05)

For Cn1nnc2c(C(N)=O)ncn2c1=O [temozolomide, reference compound], the “growth of in situ lesion (tumor volume)” value was “equivalent”.
